# Primary screen of a compound library

Protein sequences, listed by entry. Tags and fused reporters are not part of them. Residues count along the entry.
UniProt A4I591, 1-473: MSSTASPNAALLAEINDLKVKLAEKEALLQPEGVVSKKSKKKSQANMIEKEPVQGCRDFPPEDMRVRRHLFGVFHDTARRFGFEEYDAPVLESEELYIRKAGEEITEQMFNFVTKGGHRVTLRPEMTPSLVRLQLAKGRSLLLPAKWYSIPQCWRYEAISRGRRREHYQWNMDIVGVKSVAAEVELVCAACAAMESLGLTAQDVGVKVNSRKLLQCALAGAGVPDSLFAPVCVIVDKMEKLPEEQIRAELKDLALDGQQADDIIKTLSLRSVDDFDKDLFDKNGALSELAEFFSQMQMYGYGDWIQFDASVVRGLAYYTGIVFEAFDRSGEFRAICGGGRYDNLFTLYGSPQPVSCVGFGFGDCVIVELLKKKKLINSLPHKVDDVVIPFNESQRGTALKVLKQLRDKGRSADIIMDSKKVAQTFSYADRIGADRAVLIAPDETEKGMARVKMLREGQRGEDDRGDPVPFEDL
UniProt P9WNZ1, whole entry: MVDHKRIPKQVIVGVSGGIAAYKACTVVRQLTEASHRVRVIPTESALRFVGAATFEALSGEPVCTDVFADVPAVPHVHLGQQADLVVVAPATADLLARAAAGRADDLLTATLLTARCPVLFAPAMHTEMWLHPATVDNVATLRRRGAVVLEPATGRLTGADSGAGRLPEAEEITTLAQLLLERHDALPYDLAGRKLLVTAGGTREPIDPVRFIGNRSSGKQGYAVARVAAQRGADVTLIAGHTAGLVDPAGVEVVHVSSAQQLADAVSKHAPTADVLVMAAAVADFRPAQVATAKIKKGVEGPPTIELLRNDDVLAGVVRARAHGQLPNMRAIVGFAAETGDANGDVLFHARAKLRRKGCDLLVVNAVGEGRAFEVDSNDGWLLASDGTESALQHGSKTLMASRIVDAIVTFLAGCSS
UniProt P9WFT3, whole entry: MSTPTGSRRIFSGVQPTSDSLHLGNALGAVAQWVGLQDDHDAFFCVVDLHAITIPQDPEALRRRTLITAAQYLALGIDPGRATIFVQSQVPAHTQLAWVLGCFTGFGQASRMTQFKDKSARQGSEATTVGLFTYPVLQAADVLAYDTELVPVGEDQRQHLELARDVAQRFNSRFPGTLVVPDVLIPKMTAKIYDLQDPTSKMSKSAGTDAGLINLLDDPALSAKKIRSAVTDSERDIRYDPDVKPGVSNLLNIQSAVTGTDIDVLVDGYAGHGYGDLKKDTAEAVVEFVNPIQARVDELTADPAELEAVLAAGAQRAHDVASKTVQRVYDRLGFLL

LiHisRS: 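Histidine-tRNA ligase, Leishmania infantum (UniProt A4I591). Enzyme assay of histidyl-tRNA synthetase; the read-out is not stated. Compounds at 30 µM. Higher reads as stronger inhibition (inferred: compounds with an IC50 in retests scored well above the rest). The assay is labelled LdHisRS but filed under L. infantum. Size under these conditions: about 69,000 compounds, about 410 of them at 50% or above in at least one test.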
CoaBC: 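Enzyme assay of CoaBC with a phosphate dye (Biomol Green) read at 650 nm. Target: Coenzyme A biosynthesis protein CoaBC, Mycobacterium tuberculosis (UniProt P9WNZ1). Concentration: 30 µM. Higher reads as stronger inhibition, judged from the few compounds that gave an IC50. Most strong results did not repeat in a second test. About 67,000 compounds were tested under these conditions; 0.06% (about 40) showed 50% or more at least once.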
MtTrpRS: 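Tryptophan-tRNA ligase, Mycobacterium tuberculosis (UniProt P9WFT3). Enzyme assay of tryptophanyl-tRNA synthetase; the read-out is not stated. Compounds at 10 µM. Direction is not recorded; retested compounds ran higher, which suggests that high means inhibition. Of about 65,000 compounds tested this way, about 64 (0.098%) reached 50% or more in at least one test.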

The filed quantity is “Percent Effect” (%). How 0% and 100% were set is not recorded. Most values in the screen are low, and negative values occur. Compounds were drawn at random from those tested, without regard to their results.

Compound | LiHisRS | CoaBC | MtTrpRS
CCOCCOCc1cccc(CNc2cncc(-n3cccn3)n2)c1 | 2.667 | -4.132 | -3.965
Cc1cccnc1CC(C)NC1Cc2ccccc2C1 (configuration not stated) | 12.9 | 6.379 | 1.71
CCc1ccc(CN2C[C@@H](c3nc(C)no3)C[C@H]3OCC[C@H]32)o1 | 29.41 | -1.269 | -4.362
O=C(c1ccccc1F)N(CCCO)S(=O)(=O)c1cccs1 | 2.857 | 1.512 | 0.8396
CC(SCC(=O)N(C)CC(=O)NC1CC1)c1cc(F)ccc1F (configuration not stated) | 16.46 | -2.155 | -1.493
Cc1ccc(CN(CCCN2CCOCC2)Cc2[nH]cnc2C)o1 | 7.586 | -4.079 | -4.706
OC(CN1CCN(CCOCC(F)(F)F)CC1)c1ccccc1 (configuration not stated) | 18.37 | 3.215 | 18.1
Fc1ccc2nc([C@H]3CCNC3)[nH]c2c1 | 13.51 | 10.02 | 0.9916
COC(C)c1noc(CN(C)c2ncccn2)n1 (configuration not stated) | -4.478 | -3.614 | -2.639
CC1CN(C(=O)NCCc2nc(C(C)C)no2)CCO1 (configuration not stated) | 14.63 | -1.399 | 1.336
COC(=O)c1ccc2ccn(CC3COCCO3)c(=O)c2c1 (configuration not stated) | 16.8 | 2.533 | -1.667
Cc1ccnc(N2CCCC(c3nncn3C3CC3)C2)n1 (configuration not stated) | 4.819 | 9.223 | -3.765
CCc1nc(CN(C)C2CCN(CCn3cccn3)C2)no1 (configuration not stated) | 15.79 | 9.068 | -3.833
COc1ccc(-c2n[nH]cc2CN(C)CCC2CCOCC2)cc1F | 7.5 | 1.863 | 0.4341
COCC1CC2(CCN(C(C)=O)CC2)CN1Cc1csc(C)n1 (configuration not stated) | 0.8547 | 1.667 | -2.468
CNS(=O)(=O)c1ccc(CNC(=O)c2cc(C)no2)cc1 | 6.452 | 8.102 | -0.3673
CCCN(CC(=O)OC)S(=O)(=O)c1cnc2c(c1)c(C)nn2C | 12 | 4.959 | 0.08842
CC(C(N)=O)S(=O)(=O)Cc1cc(Cl)c2c(c1)OCO2 (configuration not stated) | 19.7 | 5.843 | 0.4873
CCc1nc(CN(C)CC2CCN(CCO)CC2)no1 | 9.615 | -28.78 | -3.328
Cc1nc(CN2CCCC2c2ccsc2)nc2ccccc12 (configuration not stated) | 54.05 | 8.355 | 0.2924
O=C(NC[C@]12COC[C@H]1CN(Cc1cccnc1)C2)c1ccno1 | 19.71 | 1.036 | 2.996
CC[C@@]1(O)CCN(C(=O)c2ccc(-c3cccc(F)c3)cc2)C[C@H]1O | 18.27 | -7.173 | -7.393
CC(C)(C)CC(=O)N1CCc2sccc2C1 | 11.61 | 9.127 | 1.398
CC(C)OCCCNC(=O)C1CC(=O)N(c2n[nH]c3cccc(F)c23)C1 (configuration not stated) | 21.05 | 1.263 | -1.471
Cc1nc(COCc2cnc3n2CCN(C)C3C)cs1 (configuration not stated) | 22.22 | -22.58 | -4.554
Cc1cc(C(=O)N2CCC3(CC2)CN(CCN(C)C)C(=O)O3)nc(C)n1 | 6.25 | -8.46 | -1.5
O=C(Cn1ccc2cc(Br)ccc21)NC[C@@H]1CCCN2CCCC[C@H]12 | -5.435 | -2.3 | -3.266
CN(C)c1ncc(-c2cccc(F)c2)c(C2CNCCO2)n1 (configuration not stated) | 3.448 | 0.1236 | -6.902
CCC(NC(=O)NCc1ccoc1C)c1c(C)nn(C)c1C (configuration not stated) | 13.39 | 13.49 | -1.144
CC(=O)N1CCN(Cc2ccccn2)CC2(CC(=O)N(C)C2)C1 (configuration not stated) | 17.07 | -1.693 | 3.893
Cc1cc(CN(CC(N)=O)CC(C)C)on1 | -1.961 | -0.8589 | -1.891
O=C(Nc1ccnc(OC2CCOC2)c1)c1cc(F)ccc1F (configuration not stated) | -2.885 | -4.219 | -0.7583
CCc1nc(CN2CCN(C(=O)C3(C#N)CCCC3)CC2)cs1 | 5.455 | 1.531 | -2.42
Cn1cccc1C(=O)N1CCC2(CC1)CN(c1ccccn1)CCO2 | 4.717 | 1.364 | 2.237
Cc1nc(CC(=O)N2CCCC2c2nc(-c3ccccc3)no2)cs1 (configuration not stated) | 17.74 | -0.6061 | -3.098
Cc1ccc2[nH]c(C(=O)NCCCn3ccnn3)c(C)c2c1 | 14.53 | 10.5 | 26.93
Cc1n[nH]cc1C(=O)NCc1cccnc1N1CCc2ccccc2C1 | 1.429 | -22.34 | -2.888
CC(NC(=O)CCCOc1cccc(F)c1)c1ccncc1 (configuration not stated) | 8.065 | -5.868 | -4.777
CC(C)NC(=O)N1CCC2(CC1)[C@@H]1CN(C(=O)N(C)C)C[C@@H]1C(=O)N2C | 13.59 | 4.58 | -1.859
CC(Cn1cccn1)NC(=O)CCC(=O)c1cccs1 (configuration not stated) | 8.621 | 3.133 | -5.185
CC(=O)N1CCC(N2CCOC[C@H]2c2nc(-c3cccnc3)c[nH]2)CC1 | -6.757 | 13.91 | -1.29
CN1[C@H](CN2CCCC2)C[C@@H]2CN(C(=O)Cc3cccs3)CC[C@@H]21 | 17.07 | -3.144 | -1.908
CNC(=O)N1CC[C@@H]2CN(Cc3cccc(Cl)c3)S(=O)(=O)[C@@H]2CC1 | 20 | 6.189 | -3.417
Cc1noc(CN2CCN(c3cncc(Cl)n3)CC2)n1 | 20.41 | 1.818 | 6.021
O=C(N1CCCC1)N1CCOCC2(C1)CN(c1ccccc1)C(=O)CO2 (configuration not stated) | 0 | -8.508 | -3.28
Cc1csc(NC(=O)C(C)Oc2ccc3c(c2)OCO3)n1 (configuration not stated) | 19.47 | -3.1 | 3.584
C[C@]12CCCCN(C(=O)c3ccccn3)[C@H]1CCCC(=O)N2 | 7.368 | -1.217 | 0.8696
CN1CCCC2(CCN(C(=O)CCn3cncn3)C2)C1=O (configuration not stated) | 19.05 | 6.579 | 0.2506
CCC1CCCCN1CCc1ccncc1 (configuration not stated) | 6.452 | 0.7335 | -2.114
Cc1cscc1-c1nc(C2CCOC2)no1 (configuration not stated) | -4.286 | -1.025 | -5.054
CCc1ccc(NC(=O)C2OC(c3cccs3)=NN2C(C)=O)cc1 (configuration not stated) | 17.14 | 3.534 | -2.75
CC(=O)N1CCC(C)(c2cc[nH]n2)CC1 | 9.929 | -3.263 | -7.884
O=c1[nH]nc2n1CCN(S(=O)(=O)c1ccccc1Cl)C2 | 14.4 | 1.707 | 0
CCCc1cc(NC(=O)c2cc(N3CCNC3=O)c(F)cc2F)n[nH]1 | 13.7 | 10.54 | 1.04

The first 4 entries again:

Compound	LiHisRS	CoaBC	MtTrpRS
CCOCCOCc1cccc(CNc2cncc(-n3cccn3)n2)c1	2.667	-4.132	-3.965
Cc1cccnc1CC(C)NC1Cc2ccccc2C1 (configuration not stated)	12.9	6.379	1.71
CCc1ccc(CN2C[C@@H](c3nc(C)no3)C[C@H]3OCC[C@H]32)o1	29.41	-1.269	-4.362
O=C(c1ccccc1F)N(CCCO)S(=O)(=O)c1cccs1	2.857	1.512	0.8396

Data taken from ChEMBL document CHEMBL3988442, “University of Dundee, Small-Polar-MMV Screening Library” (2021).